# Measured values taken from PubChem BioAssay AID662 (National Center for Advancing Translational Sciences (NCATS), 2007).
# The other results are listed elsewhere or left out. Further columns of the screen follow, without active or inactive calls. Most of these compounds were active or inconclusive in the main read-out, so they are no random draw. Potencies come from curve fits of mixed quality, noted in brackets.
# Assay: Cell signaling CRE-BLA (Fsk stim)
# Settings: CHO CRE-bla reporter (cAMP response element driving beta-lactamase), forskolin EC10, beta-lactamase ratio; measured here: 460 nm blue channel
# Procedure, shortened: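 The 460nm/530nm emission ratio after CCF4 loading defined %Activity, from which AC50 values were obtained. CRE-bla CHO cells received compound dilution series together with an EC10 level of NKH 477 for 3 hours at 37 degrees Celsius.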
row,Structure (SMILES),AC50
1,COc1ccc(-c2cn3c(C)c(C(=O)Nc4cc(NC(C)=O)ccc4OC)sc3n2)cc1,"25.1 µM [rising, single point]"
2,CCOC(=O)N1CCN(C(=O)C2CC(c3cc(OC)ccc3OC)=NO2)CC1 (centres undefined),"1 µM [falling, partial curve]"
3,O=C(CSC1=NCCS1)NCc1ccco1,"2.51 µM [falling, partial curve, poor fit]"
4,Cc1ccc2nc3c(cc(C#N)c(=O)n3CC3CCCO3)c(=O)n2c1 (centres undefined),"5.01 µM [rising, partial curve]"
5,Cc1ccccc1-c1noc(-c2ccc(O)cc2)n1,"0.251 µM [rising, full curve]"
6,CC1(C)CC(NC(=O)CC2CCCCC2)CC(C)(C)N1,"0.0398 µM [falling, full curve, poor fit]"
7,O=S(=O)(c1ccccc1)N1CCN(Cc2cccc(Cl)c2)CC1,"3.16 µM [falling, full curve, poor fit]"
8,O=C(Nc1nc2ccc(S(=O)(=O)N3CCCC3)cc2s1)C1CCCCC1,"12.6 µM [rising, single point]"
9,NC(=O)COc1ccc2c3c(c(=O)oc2c1)CCCCC3,"25.1 µM [rising, single point]"
10,CCc1nc2oc3cc(OC)ccc3c(=O)c2c(=O)n1Cc1ccco1,"10 µM [rising, single point]"
11,COc1ccc(OC)c(S(=O)(=O)n2cnc3cc(C)c(C)cc32)c1,"15.8 µM [rising, partial curve]"
12,CCCCN(CC)CCCNC(=O)c1cc2cc3ccc(OC)cc3nc2o1,"1.26 µM [rising, partial curve, poor fit]"
13,COc1cc(NC(=O)CC(C)C)ccc1NC(=O)c1ccco1,"3.16 µM [falling, partial curve, poor fit]"
14,CCCc1nc2ccccc2n2cc3c(=O)n(C)c(=O)n(C)c3c12,"5.01 µM [rising, partial curve]"
15,CCn1c(=N)n(CC(=O)OC)c2ccccc21,"7.94 µM [falling, partial curve]"
16,COC(=O)Nc1nc2ccc(SC(C)C)cc2[nH]1,"2 µM [rising, full curve]"
17,CN(C)Cc1nc2ccccc2c(=O)n1Cc1nc(C(C)(C)C)cs1,"6.31 µM [falling, full curve, poor fit]"
18,CC(C)C(=O)Nc1cccc2nsnc12,"25.1 µM [falling, partial curve, poor fit]"
19,COc1ccc(S(=O)(=O)NCCN2CCOCC2)c2ccccc12,"0.00398 µM [falling, full curve, poor fit]"

# Arranged by heavy-atom count (low to high): 3 of the compounds above
row,Structure (SMILES),AC50
16,COC(=O)Nc1nc2ccc(SC(C)C)cc2[nH]1,"2 µM [rising, full curve]"
7,O=S(=O)(c1ccccc1)N1CCN(Cc2cccc(Cl)c2)CC1,"3.16 µM [falling, full curve, poor fit]"
10,CCc1nc2oc3cc(OC)ccc3c(=O)c2c(=O)n1Cc1ccco1,"10 µM [rising, single point]"
